Reference: PubChem BioAssay AID651640 (Broad Institute, 2012)
About 6,000 (1.7%) of roughly 350,000 compounds were called active. The shares of active, inactive and inconclusive entries below differ from those in the screen. Cut-off read from the data, not from the text of the source: active = CPE inhibition above about 20% (passing the limit was not always enough); inconclusive = no clear call, values can overlap the other calls; tested in BHK-21 cells. Some structures have more than one record in an assay (separate samples or runs), and their calls can disagree.

experiment: protection of cells from dengue 2 killing – plate reader, single concentration, primary screen (AID 651640); settings: DENV2-infected cells, cytopathic effect rescue, at 9.99 µM, stronger effect = higher value;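 note: 0% = median of neutral control wells and 100% = median of positive control wells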

Structure (SMILES) | CPE inhibition
CO[C@@H]1CN(C)C(=O)c2ccc(NC(C)=O)cc2OC[C@@H](C)N(Cc2ccccn2)C[C@@H]1C | inactive: -1.54%
Cc1ccc(CN2CCN(Cc3nc(C(C)C)cs3)CC2CCO)cc1 (stereo not drawn) | inconclusive: 30.8%
CCCOc1ccc(N2C(=O)C3C4C=CC(CC4)C3C2=O)cc1 (stereo not drawn) | inconclusive: 40.8%
O=C(Nc1nc(-c2cc3ccccc3oc2=O)cs1)c1ccco1 | inconclusive: 26.2%
O=C([C@@H]1[C@@H](CO)[C@@H]2Cn3c(cccc3=O)[C@@H]2N1CC1CCCC1)N1CCCCC1 | inconclusive: 26.3%
COc1cccc(CN2CC(C(=O)NCCCn3cccn3)CCC2=O)c1 (stereo not drawn) | inconclusive: 57%
COc1ccc2c(c1)[C@H]1[C@H](CO2)[C@H](c2ccccc2)[C@]2(C)C(=O)Nc3ccc(Cl)cc3C(=O)N12 | active: 33%
Cc1ccc(S(=O)(=O)N2[C@@H](c3ccc(F)cc3)C(C(=O)O)=CC[C@H]2c2cccc(Cl)c2)cc1 | inconclusive: 68.8%
Cc1noc(C)c1S(=O)(=O)Nc1ccc2c(c1)C(=O)N([C@@H](C)CO)C[C@@H](C)[C@@H](CN(C)C)OCCCC[C@H](C)O2 | inactive: 14%
Cc1cc(C(C)(C)C)ccc1OC(=O)C1=CC=CN2CCS(=O)(=O)N=C12 | inconclusive: 67.9%
CC(=O)NC[C@@H]1[C@H](c2ccc(-c3cccc(F)c3)cc2)[C@H](CO)N1C(C)=O | active: 24.6%
CN(Cc1ccco1)C(=O)CN1C(=O)NC(c2ccccc2)(c2ccccc2)C1=O | inconclusive: 33.6%
CC(=O)NC[C@H]1[C@H](c2ccc(-c3ccccc3F)cc2)[C@H](CO)N1C(=O)C1CC1 | active: 53.1%
CCc1nc2ccc(C(=O)NCCCn3ccnc3)cn2c1N(C)Cc1cccs1 | inconclusive: 53.6%
O=C(NCc1cccnc1)c1[nH]c(C(F)(F)F)nc1-c1ccccc1 | inconclusive: 20.5%
COC(=O)c1ccc(/C=N/NC(=O)CC(=O)NCc2cccnc2)cc1 | inconclusive: 26.1%
CO[C@H]1CN(C)C(=O)c2cc(NC(=O)c3ccccc3)ccc2OC[C@@H](C)N(C(=O)CN(C)C)C[C@@H]1C | inactive: -0.761%
c1ccc(N2CCN(Cc3ccc4c(c3)OCO4)CC2)nc1 | inactive: -2.14%
CCCN1[C@@H]2c3ccc(-c4ccccc4)c(=O)n3C[C@@H]2[C@@H](CO)[C@@H]1C(=O)NCC1CC1 | inconclusive: 38.5%
Nc1ncnc2c1ncn2C1OC(CO)CC1O (stereo not drawn) | inconclusive: 38%
Cc1ccc(S(=O)(=O)N2[C@@H](c3ccc(C#N)cc3)C(C(=O)O)=C[C@H]2CC2CCCC2)cc1 | inconclusive: 47%
COCC(=O)N1[C@H](CO)[C@H](c2ccccc2-c2cccc(F)c2)[C@@H]1C#N | active: 32.9%
CC1(C(=O)NS(=O)(=O)C2CC2)CCCN(C(=O)c2cccc(C(F)(F)F)c2)C1 (stereo not drawn) | inconclusive: 32.4%
O=C1CC(c2ccccc2)(c2ccccc2)c2ccccc21 | inconclusive: 34.7%

Structure (SMILES) | CPE inhibition
C[C@H](CCC(=O)O)[C@H]1CC[C@H]2[C@@H]3[C@H](O)C[C@@H]4C[C@H](O)CC[C@]4(C)[C@H]3CC[C@]12C | inconclusive: 28.1%
CN(C)CC(=O)N1[C@H](C(=O)NC2CCC2)[C@@H](CO)[C@@H]2Cn3c(ccc(-c4ccc(F)cc4)c3=O)[C@@H]21 | inactive: 2.93%
CSc1c(C#N)sc(=S)n1-c1ccc(C)cc1 | inconclusive: 24.8%
Cc1ccc(OCC(=O)Nc2ccc(NC(=O)c3ccccc3)c(C)c2)cc1 | inconclusive: 20.3%
COc1ccc2[nH]c3c(c2c1)CCN1C(=O)C(CC(=O)NCc2cccc(C(F)(F)F)c2)C[C@H](C(=O)N2CCCCC2)[C@@]31CCc1ccccc1 (stereo partly drawn) | inconclusive: 22.3%
COC(=O)Cc1ccc(OC(=O)C2CCN(S(=O)(=O)c3ccc(OC)c(OC)c3)CC2)cc1 | inconclusive: 43.5%
COc1ccc(CC(=O)O/N=C(\N)c2ccc(C)cc2)cc1 | inactive: -0.438%
COCC(=O)N1CC[C@H]2[C@H](CO)Nc3ccc(C#Cc4ccc(OC)cc4)cc3[C@H]21 | active: 28.6%
CCc1ccc(NC(=O)CCC(=O)c2ccc(C)cc2)cc1 | inconclusive: 20.2%
C[C@H]1CN([C@@H](C)CO)C(=O)Cc2cc(NC(=O)CCCCCC(=O)Nc3ccccc3N)ccc2O[C@@H]1CN(C)Cc1ccc(-c2ccccc2)cc1 | inactive: -19.5%
CC1Cc2ccccc2N1CC(=O)Nc1ccc(S(=O)(=O)N(C)C)cc1 (stereo not drawn) | inactive: -5.17%
CN(CC(=O)Nc1ccccc1C(F)(F)F)C(=O)CSCc1ccccc1 | inconclusive: 53.9%
O=C1C[C@@H](c2ccc(O)cc2)Oc2cc(O)cc(O)c21 | active: 103%
C[C@@H]1CN([C@H](C)CO)S(=O)(=O)c2ccc(-c3cccc(C#N)c3)cc2O[C@H]1CN(C)C(=O)Nc1cc(F)ccc1F | active: 29.4%
COc1cccc(-c2ccccc2[C@H]2[C@@H](C#N)N(C(=O)Cc3ccccc3)[C@H]2CO)c1 | inconclusive: 24.7%
O=[N+]([O-])c1cccc(-c2ccc(SCc3ccccn3)nn2)c1 | inconclusive: 24.2%
CCN(CC(=O)Nc1c(F)cccc1F)C(=O)C1CCCN(C(=O)c2ccc(Cl)cc2)C1 (stereo not drawn) | inconclusive: 36.7%
CCC(=O)N1CCC2(CC1)CN(C(=O)CN1CCOCC1)[C@H](CO)c1[nH]c3cc(OC)ccc3c12 | active: 40.3%
CO[C@H]1CN(C)C(=O)c2ccc(NC(C)=O)cc2OC[C@@H](C)NC[C@H]1C | inconclusive: 29.6%
N#C[C@H]1[C@@H](c2ccccc2C2=CCCCC2)[C@H](CO)N1C(=O)CN1CCOCC1 | active: 43%
COC(=O)C1CCN(S(=O)(=O)c2c(C)n(C)c(=O)n(C)c2=O)CC1 | inconclusive: 42%
O=C(NC(=S)Nc1cccc2cc(O)ccc12)c1ccco1 | active: 44.5%
Cc1cccc(Cl)c1OCCN1CCCC1 | active: 70.5%
CN(C)CC(=O)N1[C@@H](CO)[C@H](c2ccccc2)C12CN(C(=O)c1cccc(F)c1)C2 | active: 49.2%

Some values from the list.
Entry for CCN(CC(=O)Nc1c(F)cccc1F)C(=O)C1CCCN(C(=O)c2ccc(Cl)cc2)C1 (stereo not drawn) under CPE inhibition: inconclusive: 36.7%
Entry for O=C(NC(=S)Nc1cccc2cc(O)ccc12)c1ccco1 under CPE inhibition: active: 44.5%
Entry for C[C@@H]1CN([C@H](C)CO)S(=O)(=O)c2ccc(-c3cccc(C#N)c3)cc2O[C@H]1CN(C)C(=O)Nc1cc(F)ccc1F under CPE inhibition: active: 29.4%
